No constants are given. Whether binding was seen depends on the method and setting. Binding can be weak; no strength is given.
What follows are binders tested against Δ9-Flag (soluble recombinant Δ9 splice variant of IL-23Rα, Flag-tagged) (human) (assay: phage display panning, anti-Flag affinity gel).

| Binder | binding |
| --- | --- |
| AMTWEDWWLYGR (peptide, not shown: large carriers) [M13 phage displaying polypeptide no. 23] | binds |
| NSDHWYAYWLIN (peptide, not shown: large carriers) [M13 phage displaying polypeptide no. 60] | binds |
| GFAKQWHVDAND (peptide, not shown: large carriers) [M13 phage displaying polypeptide no. 61] | binds |
| EPTWQWYWGQYS (peptide, not shown: large carriers) [M13 phage displaying polypeptide no. 66] | binds |
| NHGSAWQDYYLK (peptide, not shown: large carriers) [M13 phage displaying polypeptide no. 75] | binds |
| HWQVPTGNHLWS (peptide, not shown: large carriers) [M13 phage displaying polypeptide no. 79] | binds |
